Values from PubChem BioAssay AID1259425 (University of Nebraska Medical Center, 2018)
Assay: 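Compare each knockdown with KSR1 silencing using changes in marker transcripts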 (primary screen). System: HCT116 human colon cancer cells. Reagent: siRNA pool against human genes, 50 nM siRNA. Read-out: 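After 50 nM siRNA pool, branched-DNA assay measures six marker transcripts per well, minus blank, normalised to the geometric mean of two housekeeping transcripts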. Scale: BNIP3L mRNA: higher = more BNIP3L transcript after knockdown; NDRG1 mRNA: higher = more NDRG1 transcript after knockdown.
Here is a random part of about 14,000 deposited reagents. Further read-outs or replicates are left out here. Not given: the time to read-out.

For CA7 [SID363996108], the values are BNIP3L mRNA, set 1 = 0.1; NDRG1 mRNA, set 1 = 0.345.
Depletion of TNFAIP8 [SID363998776] gave: BNIP3L mRNA, set 1 = 0.042; NDRG1 mRNA, set 1 = 0.142.
Depletion of AKR1C2 [SID363992631] came out at: BNIP3L mRNA, set 1 = 0.0695; NDRG1 mRNA, set 1 = 0.287.
CDK15 [SID364004600] gave BNIP3L mRNA, set 1 = 0.0894; NDRG1 mRNA, set 1 = 0.32.
With knock-down of KLF9 [SID363992494] the results were BNIP3L mRNA, set 1 = 0.149; NDRG1 mRNA, set 1 = 0.114.
Silencing of GPR37 [SID363996219] came out at: BNIP3L mRNA, set 1 = 0.455; NDRG1 mRNA, set 1 = 0.311.
With knock-down of PPP2R3C [SID364000642] the results were BNIP3L mRNA, set 1 = 0.102; NDRG1 mRNA, set 1 = 0.122.
Against YWHAE [SID363997532], the entry reads BNIP3L mRNA, set 1 = 0.0372; NDRG1 mRNA, set 1 = 0.729.
After knock-down of ZBTB45 [SID364004175], the screen gave BNIP3L mRNA, set 1 = 0.127; NDRG1 mRNA, set 1 = 0.0705.
ENDOG [SID363995417] scored BNIP3L mRNA, set 1 = 0.0975; NDRG1 mRNA, set 1 = 0.875.
Against TRAF6 [SID363995588] the deposit lists BNIP3L mRNA, set 1 = 0.076; NDRG1 mRNA, set 1 = 0.119.
Depletion of CD38 [SID363992994] came out at: BNIP3L mRNA, set 1 = 0.0545; NDRG1 mRNA, set 1 = 0.047.
Against LINC00470 [SID364003603] the deposit lists BNIP3L mRNA, set 1 = 0.15; NDRG1 mRNA, set 1 = 0.176.
With knock-down of COQ8A [SID364001592] the results were BNIP3L mRNA, set 1 = 0.148; NDRG1 mRNA, set 1 = 0.0336.
With knock-down of MASP2 [SID363997400], the screen gave BNIP3L mRNA, set 1 = 0.0669; NDRG1 mRNA, set 1 = 0.14.
Depletion of ZIC1 [SID363994520] came out at: BNIP3L mRNA, set 1 = 0.118; NDRG1 mRNA, set 1 = 0.0626.
Against FANCC [SID363991472], the values are BNIP3L mRNA, set 1 = 0.179; NDRG1 mRNA, set 1 = 0.33.
With knock-down of SDSL [SID364004558] the results were BNIP3L mRNA, set 1 = 0.111; NDRG1 mRNA, set 1 = 0.278.
Silencing of TAC1 [SID363994318] gave: BNIP3L mRNA, set 1 = 0.0783; NDRG1 mRNA, set 1 = 0.0728.
ETV6 [SID363993199] showed BNIP3L mRNA, set 1 = 0.23; NDRG1 mRNA, set 1 = 0.0891.
For SYNE3 [SID364002932], the entry reads BNIP3L mRNA, set 1 = 0.187; NDRG1 mRNA, set 1 = 0.314.
SC5D [SID363997672] showed BNIP3L mRNA, set 1 = 0.15; NDRG1 mRNA, set 1 = 0.609.
Silencing of POMZP3 [SID364004753] gave: BNIP3L mRNA, set 1 = 0.215; NDRG1 mRNA, set 1 = 0.22.
With knock-down of BRK1 [SID364001091], the record shows BNIP3L mRNA, set 1 = 0.149; NDRG1 mRNA, set 1 = 0.194.
Against MNAT1 [SID363993609] the deposit lists BNIP3L mRNA, set 1 = 0.107; NDRG1 mRNA, set 1 = 0.401.
LRP12 [SID363998516] showed BNIP3L mRNA, set 1 = 0.0686; NDRG1 mRNA, set 1 = 0.374.
ARMC9 [SID364003269] showed BNIP3L mRNA, set 1 = 0.148; NDRG1 mRNA, set 1 = 0.67.
KCNS2 [SID364005151] scored BNIP3L mRNA, set 1 = 0.146; NDRG1 mRNA, set 1 = 0.401.

Sorted by “BNIP3L mRNA, set 1” (highest first): some entries from above.
FANCC [SID363991472] — BNIP3L mRNA, set 1 = 0.179; NDRG1 mRNA, set 1 = 0.33
ZIC1 [SID363994520] — BNIP3L mRNA, set 1 = 0.118; NDRG1 mRNA, set 1 = 0.0626
SDSL [SID364004558] — BNIP3L mRNA, set 1 = 0.111; NDRG1 mRNA, set 1 = 0.278
MASP2 [SID363997400] — BNIP3L mRNA, set 1 = 0.0669; NDRG1 mRNA, set 1 = 0.14
